Here are results for 4 substances from publication PMC7348978.

Amino acid sequences for entries named in this document (tags omitted).
UniProt Q9R0A1: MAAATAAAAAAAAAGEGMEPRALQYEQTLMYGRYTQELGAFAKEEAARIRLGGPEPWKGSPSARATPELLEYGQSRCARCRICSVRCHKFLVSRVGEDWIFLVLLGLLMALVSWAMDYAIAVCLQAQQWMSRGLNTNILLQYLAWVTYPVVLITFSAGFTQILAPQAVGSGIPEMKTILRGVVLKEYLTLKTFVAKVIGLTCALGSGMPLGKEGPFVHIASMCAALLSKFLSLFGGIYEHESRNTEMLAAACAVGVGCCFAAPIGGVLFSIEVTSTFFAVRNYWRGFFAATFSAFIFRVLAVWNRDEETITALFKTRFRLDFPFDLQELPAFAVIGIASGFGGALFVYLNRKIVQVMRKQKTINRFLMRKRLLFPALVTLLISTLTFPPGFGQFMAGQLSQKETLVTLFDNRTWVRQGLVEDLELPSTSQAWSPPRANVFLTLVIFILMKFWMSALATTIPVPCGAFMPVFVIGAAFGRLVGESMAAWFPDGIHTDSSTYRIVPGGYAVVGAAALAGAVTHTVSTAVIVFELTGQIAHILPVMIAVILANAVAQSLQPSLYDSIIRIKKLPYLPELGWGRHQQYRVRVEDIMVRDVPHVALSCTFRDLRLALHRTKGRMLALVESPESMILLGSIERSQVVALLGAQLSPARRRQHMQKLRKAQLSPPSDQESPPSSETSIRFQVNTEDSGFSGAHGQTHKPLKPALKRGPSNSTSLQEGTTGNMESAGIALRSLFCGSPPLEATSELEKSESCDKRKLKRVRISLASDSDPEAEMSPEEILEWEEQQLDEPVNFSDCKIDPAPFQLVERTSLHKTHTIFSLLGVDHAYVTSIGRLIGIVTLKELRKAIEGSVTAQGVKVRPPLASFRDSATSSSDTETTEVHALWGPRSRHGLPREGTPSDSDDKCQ
UniProt Q56AP7: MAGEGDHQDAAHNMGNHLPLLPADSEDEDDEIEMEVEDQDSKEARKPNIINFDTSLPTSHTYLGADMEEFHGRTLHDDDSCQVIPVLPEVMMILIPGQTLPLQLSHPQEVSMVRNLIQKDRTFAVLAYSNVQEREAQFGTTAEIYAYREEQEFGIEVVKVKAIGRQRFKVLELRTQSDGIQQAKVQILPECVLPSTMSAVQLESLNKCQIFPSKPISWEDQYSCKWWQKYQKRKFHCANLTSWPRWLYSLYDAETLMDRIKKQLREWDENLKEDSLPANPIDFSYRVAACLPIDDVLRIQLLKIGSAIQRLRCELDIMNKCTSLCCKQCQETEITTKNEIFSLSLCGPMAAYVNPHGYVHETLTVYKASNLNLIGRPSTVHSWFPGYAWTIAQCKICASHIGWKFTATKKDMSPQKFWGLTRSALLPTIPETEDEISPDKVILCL
UniProt Q13619: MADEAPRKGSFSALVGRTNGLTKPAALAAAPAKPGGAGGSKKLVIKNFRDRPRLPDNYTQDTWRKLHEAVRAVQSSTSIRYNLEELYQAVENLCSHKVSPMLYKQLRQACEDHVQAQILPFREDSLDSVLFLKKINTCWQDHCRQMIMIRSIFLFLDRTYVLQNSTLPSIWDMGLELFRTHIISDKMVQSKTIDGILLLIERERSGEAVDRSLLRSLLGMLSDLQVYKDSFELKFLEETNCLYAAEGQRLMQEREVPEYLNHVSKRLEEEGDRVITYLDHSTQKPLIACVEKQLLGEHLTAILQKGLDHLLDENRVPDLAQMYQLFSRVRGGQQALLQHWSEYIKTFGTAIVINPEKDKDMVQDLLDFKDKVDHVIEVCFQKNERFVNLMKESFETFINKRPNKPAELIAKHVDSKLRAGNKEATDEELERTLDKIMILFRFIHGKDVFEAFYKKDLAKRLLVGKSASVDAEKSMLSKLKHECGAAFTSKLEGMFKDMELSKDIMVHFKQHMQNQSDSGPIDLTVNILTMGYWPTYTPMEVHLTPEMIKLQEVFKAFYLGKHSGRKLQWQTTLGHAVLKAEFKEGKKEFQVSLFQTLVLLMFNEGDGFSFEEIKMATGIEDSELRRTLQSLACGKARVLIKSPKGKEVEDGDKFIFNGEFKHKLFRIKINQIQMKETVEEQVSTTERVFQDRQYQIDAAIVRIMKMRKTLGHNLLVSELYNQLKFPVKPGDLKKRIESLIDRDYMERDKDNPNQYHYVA
UniProt Q13620: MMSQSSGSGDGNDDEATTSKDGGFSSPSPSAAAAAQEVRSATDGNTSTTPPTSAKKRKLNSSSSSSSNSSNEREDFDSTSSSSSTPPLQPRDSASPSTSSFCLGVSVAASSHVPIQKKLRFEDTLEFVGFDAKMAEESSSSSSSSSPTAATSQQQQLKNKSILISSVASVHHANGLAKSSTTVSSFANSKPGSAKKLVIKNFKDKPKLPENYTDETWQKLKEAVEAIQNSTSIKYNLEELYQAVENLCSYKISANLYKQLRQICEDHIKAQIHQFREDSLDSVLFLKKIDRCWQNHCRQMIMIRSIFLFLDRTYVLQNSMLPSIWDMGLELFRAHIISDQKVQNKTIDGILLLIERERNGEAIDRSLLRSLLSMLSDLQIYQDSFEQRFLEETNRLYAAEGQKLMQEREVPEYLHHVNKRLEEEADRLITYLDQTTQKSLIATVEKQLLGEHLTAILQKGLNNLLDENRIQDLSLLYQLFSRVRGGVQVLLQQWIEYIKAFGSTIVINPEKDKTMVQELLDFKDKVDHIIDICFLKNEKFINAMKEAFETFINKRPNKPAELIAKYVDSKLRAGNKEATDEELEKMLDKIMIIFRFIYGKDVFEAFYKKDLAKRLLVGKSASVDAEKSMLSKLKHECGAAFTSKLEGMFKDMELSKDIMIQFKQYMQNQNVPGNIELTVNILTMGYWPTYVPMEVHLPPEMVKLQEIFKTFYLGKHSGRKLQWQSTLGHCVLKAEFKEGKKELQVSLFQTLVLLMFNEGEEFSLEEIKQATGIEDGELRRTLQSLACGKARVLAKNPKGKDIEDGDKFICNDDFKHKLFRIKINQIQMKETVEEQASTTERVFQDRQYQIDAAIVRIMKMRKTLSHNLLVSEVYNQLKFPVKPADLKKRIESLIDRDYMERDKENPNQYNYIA
UniProt P35525: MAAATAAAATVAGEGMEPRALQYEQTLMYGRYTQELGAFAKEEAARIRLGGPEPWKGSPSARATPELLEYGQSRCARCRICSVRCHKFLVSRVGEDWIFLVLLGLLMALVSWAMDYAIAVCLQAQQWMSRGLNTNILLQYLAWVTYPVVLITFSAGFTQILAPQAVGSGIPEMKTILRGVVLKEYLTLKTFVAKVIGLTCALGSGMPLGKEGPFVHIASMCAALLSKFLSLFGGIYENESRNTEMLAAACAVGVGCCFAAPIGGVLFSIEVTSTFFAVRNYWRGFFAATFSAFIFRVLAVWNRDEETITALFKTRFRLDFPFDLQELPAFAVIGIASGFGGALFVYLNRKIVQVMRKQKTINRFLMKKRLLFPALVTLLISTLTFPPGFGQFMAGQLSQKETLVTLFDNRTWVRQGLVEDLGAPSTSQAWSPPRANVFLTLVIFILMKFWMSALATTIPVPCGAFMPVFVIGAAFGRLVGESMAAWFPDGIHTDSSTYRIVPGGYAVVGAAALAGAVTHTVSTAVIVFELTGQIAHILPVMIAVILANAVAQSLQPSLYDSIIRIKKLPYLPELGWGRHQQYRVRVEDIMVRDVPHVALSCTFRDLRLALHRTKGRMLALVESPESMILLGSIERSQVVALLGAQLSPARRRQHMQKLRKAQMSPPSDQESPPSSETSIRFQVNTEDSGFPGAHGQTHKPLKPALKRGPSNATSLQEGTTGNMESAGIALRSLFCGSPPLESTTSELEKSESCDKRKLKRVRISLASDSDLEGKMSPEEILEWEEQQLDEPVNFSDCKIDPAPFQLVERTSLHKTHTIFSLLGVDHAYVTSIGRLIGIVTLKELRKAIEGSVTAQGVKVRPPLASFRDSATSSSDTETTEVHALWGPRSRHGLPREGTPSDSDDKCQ
UniProt Q16531: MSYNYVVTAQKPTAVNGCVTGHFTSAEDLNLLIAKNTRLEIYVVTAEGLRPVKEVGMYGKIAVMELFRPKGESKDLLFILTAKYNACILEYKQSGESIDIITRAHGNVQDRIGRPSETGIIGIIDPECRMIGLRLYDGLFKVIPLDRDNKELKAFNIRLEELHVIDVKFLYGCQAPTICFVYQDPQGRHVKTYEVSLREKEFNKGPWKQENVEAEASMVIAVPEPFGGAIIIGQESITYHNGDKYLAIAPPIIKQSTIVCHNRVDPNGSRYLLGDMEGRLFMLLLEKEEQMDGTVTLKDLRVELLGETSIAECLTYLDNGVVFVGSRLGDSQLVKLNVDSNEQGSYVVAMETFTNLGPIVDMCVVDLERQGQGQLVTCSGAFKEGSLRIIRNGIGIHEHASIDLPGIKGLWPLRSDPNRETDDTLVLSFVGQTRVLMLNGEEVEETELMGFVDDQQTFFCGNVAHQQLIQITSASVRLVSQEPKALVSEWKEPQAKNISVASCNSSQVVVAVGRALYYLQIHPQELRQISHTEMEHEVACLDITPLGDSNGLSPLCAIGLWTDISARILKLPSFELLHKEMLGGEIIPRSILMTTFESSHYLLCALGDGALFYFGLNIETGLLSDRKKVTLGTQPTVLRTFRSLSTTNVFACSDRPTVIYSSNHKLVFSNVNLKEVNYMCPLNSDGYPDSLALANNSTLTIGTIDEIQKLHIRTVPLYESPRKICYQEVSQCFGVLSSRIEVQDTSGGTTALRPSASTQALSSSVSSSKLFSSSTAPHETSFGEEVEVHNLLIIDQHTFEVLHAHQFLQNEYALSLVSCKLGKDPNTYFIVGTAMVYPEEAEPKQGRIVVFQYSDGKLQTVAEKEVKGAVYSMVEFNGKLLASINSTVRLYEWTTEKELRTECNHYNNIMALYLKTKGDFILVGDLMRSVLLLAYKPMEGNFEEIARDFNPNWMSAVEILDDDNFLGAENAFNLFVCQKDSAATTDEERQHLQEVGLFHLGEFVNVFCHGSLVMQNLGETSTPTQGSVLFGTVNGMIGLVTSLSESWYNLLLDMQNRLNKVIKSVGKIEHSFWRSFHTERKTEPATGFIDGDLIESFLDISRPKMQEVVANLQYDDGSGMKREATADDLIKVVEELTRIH
UniProt Q8C7D2: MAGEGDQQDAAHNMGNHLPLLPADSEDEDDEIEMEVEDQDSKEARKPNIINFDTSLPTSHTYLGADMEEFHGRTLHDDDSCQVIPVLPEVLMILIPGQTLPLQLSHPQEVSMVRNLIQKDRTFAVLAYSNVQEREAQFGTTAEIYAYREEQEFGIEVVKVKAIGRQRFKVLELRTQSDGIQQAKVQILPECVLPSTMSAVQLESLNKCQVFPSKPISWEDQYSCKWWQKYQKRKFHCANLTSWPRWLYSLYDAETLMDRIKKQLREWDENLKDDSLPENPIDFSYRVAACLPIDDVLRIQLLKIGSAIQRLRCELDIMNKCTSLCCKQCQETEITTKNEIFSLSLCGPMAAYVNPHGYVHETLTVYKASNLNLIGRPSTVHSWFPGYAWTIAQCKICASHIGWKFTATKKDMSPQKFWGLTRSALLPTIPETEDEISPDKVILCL

Assay [1] deals with Myc-tagged mouse ClC-2 (mouse) (UniProt Q9R0A1). As to the kind of experiment: co-IP; co-expression in HEK293T cells; 10 uM MG132 for 24 h before lysis; IP buffer with 100 mM NaCl, 1% Triton X-100, pH 7.5; protein G sepharose beads pre-coated with anti-Myc or anti-HA, 16 h at 4 °C; immunoblotting. (In western blotting, separated proteins are transferred to a membrane and probed.)

The target of assay [2] is HA-tagged rat cereblon (rat) (UniProt Q56AP7). Described as above.
For assay [3], the target named is Myc-tagged human cullin 4A (human) (UniProt Q13619). The description is as above.
The target in assay [4] is Myc-tagged human cullin 4B (human) (UniProt Q13620). The assay is described as above.
For assay [5], the target named is endogenous ClC-2 of the mouse testis (mouse (endogenous in mouse testis)) (UniProt Q9R0A1). Nature of the assay: co-IP; mouse testis lysates immunoprecipitated with anti-ClC-2 or rabbit IgG, immunoblotting.
The target of assay [6] is endogenous ClC-2 of the rat brain (rat (endogenous in rat brain)) (UniProt P35525). Nature of the assay: co-IP; rat whole brain lysates immunoprecipitated with anti-ClC-2 (rabbit IgG as control), immunoblotting with anti-ClC-2 or anti-CRBN.

No constants are given. Whether binding was seen depends on the method and setting. Binding seen in cells or lysates may run through a third protein. Some binding calls cover weakened binding; strength is not graded here.

For the substance “Flag-tagged human damage-specific DNA binding protein 1 (from UniProt Q16531 1-1140)”, in assay [1], the binding result is “binds”. For “N-terminal Flag-tagged mouse ClC-2 (from UniProt Q9R0A1 1-908)”, the binding result in assay [2], in assay [3] and in assay [4] was “binds” each time. With “endogenous cereblon of the mouse testis (from UniProt Q8C7D2 1-445)”, the binding entry in assay [5] is “binds”. “endogenous cereblon of the rat brain (from UniProt Q56AP7 1-445)”: in assay [6], the binding entry was “binds”.
